Measured values: the supplement of paper PMC6411743
± gives the standard deviation of the averaged measurements. The entries are a selection whose mix differs from that of the whole data set.

The chains behind the UniProt entries cited, without tags or fusion partners. Where a name states a change or a piece, a line headed by the entry shows the natural chain unless it says otherwise.
UniProt P51817: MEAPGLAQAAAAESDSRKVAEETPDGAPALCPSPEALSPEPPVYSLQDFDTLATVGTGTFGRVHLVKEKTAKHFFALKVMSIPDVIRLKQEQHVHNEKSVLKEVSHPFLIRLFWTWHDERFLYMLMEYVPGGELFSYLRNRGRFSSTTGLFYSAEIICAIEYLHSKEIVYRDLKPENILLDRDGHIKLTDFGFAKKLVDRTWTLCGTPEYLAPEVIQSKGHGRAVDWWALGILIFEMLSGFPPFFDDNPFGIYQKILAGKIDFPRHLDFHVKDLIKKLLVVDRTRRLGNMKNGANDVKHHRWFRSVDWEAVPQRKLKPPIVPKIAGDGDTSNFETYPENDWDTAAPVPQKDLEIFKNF
UniProt P42167: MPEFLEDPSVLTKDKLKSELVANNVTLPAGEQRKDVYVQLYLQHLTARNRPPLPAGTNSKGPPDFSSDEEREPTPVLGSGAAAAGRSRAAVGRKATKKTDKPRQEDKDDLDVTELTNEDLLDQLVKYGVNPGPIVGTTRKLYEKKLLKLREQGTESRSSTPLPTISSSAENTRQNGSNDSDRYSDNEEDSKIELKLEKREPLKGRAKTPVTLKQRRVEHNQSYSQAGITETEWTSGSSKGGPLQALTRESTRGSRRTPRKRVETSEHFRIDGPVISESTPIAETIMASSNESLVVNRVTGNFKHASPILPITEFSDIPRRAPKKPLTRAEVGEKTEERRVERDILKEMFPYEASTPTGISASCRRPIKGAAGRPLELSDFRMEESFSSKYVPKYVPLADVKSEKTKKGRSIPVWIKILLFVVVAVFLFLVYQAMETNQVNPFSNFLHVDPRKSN
UniProt P55273: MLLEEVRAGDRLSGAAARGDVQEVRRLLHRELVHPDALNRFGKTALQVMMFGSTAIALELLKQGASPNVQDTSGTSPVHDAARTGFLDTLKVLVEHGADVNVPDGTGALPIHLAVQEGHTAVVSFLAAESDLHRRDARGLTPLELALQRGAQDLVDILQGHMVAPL
UniProt P49770: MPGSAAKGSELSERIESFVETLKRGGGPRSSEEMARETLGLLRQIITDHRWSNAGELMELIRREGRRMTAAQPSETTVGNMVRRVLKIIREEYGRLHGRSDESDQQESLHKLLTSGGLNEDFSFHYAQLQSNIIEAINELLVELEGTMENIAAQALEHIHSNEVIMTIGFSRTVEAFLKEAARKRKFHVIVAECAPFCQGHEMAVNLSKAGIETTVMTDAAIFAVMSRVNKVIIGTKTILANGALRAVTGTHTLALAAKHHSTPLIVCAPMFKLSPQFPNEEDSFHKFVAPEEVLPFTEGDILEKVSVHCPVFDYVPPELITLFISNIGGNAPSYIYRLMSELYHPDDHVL
UniProt P41440: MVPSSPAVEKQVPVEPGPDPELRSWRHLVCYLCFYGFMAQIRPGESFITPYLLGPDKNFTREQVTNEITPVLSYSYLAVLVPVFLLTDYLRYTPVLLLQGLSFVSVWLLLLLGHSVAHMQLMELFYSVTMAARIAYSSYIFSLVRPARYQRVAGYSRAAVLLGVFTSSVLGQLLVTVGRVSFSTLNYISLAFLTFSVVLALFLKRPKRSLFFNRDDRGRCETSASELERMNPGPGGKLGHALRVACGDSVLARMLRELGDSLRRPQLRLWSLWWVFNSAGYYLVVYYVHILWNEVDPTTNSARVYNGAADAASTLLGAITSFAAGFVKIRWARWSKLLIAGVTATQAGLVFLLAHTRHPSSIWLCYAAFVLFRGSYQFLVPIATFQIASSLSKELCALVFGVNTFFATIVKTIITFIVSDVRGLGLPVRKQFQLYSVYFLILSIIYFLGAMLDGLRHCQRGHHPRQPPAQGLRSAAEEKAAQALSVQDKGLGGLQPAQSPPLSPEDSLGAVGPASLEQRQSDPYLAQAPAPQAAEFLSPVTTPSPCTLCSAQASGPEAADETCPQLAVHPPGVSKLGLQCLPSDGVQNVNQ
UniProt P52788: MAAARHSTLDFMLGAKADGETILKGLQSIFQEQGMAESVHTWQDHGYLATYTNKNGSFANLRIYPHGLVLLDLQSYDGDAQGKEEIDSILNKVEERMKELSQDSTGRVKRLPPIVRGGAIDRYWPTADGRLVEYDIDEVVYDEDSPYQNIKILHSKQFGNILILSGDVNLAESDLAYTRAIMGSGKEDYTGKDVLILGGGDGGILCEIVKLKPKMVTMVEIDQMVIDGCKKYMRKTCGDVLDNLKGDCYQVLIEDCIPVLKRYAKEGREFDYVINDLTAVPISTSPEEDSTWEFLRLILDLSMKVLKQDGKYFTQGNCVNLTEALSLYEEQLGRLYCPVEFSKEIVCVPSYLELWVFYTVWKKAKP
UniProt P53007, whole entry, looked up: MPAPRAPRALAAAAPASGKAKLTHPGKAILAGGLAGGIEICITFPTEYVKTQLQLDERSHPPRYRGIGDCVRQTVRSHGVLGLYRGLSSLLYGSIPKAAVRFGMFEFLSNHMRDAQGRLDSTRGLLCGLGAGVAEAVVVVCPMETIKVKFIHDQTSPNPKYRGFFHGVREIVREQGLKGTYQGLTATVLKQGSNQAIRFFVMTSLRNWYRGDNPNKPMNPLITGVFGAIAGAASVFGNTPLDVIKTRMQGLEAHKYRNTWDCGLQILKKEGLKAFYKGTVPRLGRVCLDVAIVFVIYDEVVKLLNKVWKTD
UniProt P53611: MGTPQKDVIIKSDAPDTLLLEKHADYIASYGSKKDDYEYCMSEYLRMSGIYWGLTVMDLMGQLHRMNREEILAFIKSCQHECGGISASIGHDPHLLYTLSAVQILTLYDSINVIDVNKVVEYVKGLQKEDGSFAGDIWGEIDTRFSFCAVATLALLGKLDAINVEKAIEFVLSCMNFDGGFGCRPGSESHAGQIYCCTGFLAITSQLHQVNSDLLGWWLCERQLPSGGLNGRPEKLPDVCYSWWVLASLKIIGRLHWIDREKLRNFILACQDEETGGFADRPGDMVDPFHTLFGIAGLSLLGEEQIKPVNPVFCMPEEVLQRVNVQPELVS
UniProt P43155: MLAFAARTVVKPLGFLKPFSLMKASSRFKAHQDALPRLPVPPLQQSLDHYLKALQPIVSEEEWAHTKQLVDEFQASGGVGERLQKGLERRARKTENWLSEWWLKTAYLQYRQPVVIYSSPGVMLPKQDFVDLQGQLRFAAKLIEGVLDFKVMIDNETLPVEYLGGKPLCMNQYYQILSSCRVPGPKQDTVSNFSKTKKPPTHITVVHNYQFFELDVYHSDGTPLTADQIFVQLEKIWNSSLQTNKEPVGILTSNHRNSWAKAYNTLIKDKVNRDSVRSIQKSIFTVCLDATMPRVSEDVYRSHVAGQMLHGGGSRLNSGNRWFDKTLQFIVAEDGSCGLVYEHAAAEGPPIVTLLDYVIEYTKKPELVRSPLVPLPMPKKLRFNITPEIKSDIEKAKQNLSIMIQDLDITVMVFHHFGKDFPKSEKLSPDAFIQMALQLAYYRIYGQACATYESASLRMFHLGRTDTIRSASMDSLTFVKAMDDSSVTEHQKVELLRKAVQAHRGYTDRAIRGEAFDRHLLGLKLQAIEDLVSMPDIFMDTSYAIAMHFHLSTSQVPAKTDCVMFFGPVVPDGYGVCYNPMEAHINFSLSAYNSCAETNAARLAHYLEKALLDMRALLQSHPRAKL
UniProt P52566: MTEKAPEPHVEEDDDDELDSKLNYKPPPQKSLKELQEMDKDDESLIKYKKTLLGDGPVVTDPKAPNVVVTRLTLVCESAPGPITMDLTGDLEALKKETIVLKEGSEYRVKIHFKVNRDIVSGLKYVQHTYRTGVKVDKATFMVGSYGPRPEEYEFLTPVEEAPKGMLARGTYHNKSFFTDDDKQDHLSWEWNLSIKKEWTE
UniProt P50454: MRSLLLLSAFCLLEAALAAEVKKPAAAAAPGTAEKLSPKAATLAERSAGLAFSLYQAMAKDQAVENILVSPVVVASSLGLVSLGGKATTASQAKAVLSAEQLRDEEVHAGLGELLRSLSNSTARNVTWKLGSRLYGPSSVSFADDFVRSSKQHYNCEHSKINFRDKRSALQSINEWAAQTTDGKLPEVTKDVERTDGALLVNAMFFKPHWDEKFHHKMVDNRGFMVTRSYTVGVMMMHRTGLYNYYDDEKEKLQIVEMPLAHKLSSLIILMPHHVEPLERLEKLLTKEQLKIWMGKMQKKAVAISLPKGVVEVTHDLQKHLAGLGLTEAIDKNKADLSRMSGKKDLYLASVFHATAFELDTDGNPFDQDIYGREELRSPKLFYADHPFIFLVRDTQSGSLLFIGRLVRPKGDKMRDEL
UniProt P55010, whole entry: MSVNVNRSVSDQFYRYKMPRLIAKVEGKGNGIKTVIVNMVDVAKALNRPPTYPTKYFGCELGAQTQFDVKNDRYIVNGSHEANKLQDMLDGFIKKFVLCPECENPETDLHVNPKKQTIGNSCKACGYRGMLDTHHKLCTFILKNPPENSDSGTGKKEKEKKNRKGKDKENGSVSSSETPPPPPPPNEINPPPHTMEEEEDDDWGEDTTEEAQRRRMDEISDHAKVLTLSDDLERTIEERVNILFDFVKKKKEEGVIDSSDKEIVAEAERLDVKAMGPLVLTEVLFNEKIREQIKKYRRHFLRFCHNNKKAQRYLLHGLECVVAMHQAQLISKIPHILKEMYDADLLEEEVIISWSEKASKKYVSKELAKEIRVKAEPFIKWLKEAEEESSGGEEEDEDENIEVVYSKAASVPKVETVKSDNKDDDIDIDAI
UniProt P53367: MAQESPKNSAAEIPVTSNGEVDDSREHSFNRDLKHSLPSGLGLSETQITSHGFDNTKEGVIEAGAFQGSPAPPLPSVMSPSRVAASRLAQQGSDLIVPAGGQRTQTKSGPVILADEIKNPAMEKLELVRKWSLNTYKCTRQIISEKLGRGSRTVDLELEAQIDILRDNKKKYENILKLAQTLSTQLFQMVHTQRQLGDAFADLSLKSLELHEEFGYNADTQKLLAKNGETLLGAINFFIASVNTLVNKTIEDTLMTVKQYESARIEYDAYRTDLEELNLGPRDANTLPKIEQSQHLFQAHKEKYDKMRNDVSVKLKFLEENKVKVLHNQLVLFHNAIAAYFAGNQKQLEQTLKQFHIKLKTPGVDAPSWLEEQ
UniProt P51665: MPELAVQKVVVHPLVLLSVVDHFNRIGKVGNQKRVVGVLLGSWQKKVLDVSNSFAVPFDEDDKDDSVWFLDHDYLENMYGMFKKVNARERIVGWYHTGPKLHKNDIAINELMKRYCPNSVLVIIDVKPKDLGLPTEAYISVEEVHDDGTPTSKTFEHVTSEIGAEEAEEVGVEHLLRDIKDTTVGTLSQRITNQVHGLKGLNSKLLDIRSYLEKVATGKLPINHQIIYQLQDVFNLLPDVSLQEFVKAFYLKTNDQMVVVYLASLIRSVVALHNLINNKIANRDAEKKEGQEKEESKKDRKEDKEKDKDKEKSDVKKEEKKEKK
UniProt P52735: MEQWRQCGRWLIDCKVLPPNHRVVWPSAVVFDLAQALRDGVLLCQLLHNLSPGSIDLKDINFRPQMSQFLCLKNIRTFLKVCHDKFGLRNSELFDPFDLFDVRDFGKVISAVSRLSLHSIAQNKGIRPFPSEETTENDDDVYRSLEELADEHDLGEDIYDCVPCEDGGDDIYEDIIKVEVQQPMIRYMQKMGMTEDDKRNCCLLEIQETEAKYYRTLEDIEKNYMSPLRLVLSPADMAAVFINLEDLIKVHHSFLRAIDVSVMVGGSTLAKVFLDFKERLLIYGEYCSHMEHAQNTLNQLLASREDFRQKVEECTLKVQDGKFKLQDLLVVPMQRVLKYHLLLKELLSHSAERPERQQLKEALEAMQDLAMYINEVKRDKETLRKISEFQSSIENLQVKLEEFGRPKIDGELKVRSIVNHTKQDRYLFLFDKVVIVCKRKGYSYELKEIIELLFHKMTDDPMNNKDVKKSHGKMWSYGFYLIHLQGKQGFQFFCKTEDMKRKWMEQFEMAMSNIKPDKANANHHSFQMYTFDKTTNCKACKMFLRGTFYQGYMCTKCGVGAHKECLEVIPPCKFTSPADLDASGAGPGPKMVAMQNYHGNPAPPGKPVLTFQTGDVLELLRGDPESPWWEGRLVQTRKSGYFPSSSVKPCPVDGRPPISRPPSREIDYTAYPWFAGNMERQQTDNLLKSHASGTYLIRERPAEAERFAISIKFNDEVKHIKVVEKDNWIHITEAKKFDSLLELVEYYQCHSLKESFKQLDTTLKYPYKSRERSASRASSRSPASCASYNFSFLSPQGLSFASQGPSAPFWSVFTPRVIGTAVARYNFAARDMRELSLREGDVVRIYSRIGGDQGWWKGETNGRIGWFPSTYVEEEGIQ
UniProt P40938, whole entry: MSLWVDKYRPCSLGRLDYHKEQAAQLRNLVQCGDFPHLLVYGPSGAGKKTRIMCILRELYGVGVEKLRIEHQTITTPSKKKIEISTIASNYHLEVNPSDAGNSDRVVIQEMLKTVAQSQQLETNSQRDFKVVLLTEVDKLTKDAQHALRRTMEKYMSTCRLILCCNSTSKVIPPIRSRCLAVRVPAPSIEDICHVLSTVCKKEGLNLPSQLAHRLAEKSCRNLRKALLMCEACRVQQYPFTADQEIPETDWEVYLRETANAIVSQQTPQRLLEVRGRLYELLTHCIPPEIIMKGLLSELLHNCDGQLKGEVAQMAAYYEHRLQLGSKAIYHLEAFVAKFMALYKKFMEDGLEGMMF

Compound: Nc1ncnc2c1ncn2[C@@H]1O[C@H](COP(=O)(O)OP(=O)(O)NP(=O)(O)O)[C@@H](O)[C@H]1O [adenylyl imidodiphosphate]
Assay: NP40-soluble protein abundance relative to vehicle (solubility fold change) (ratio); higher = more soluble protein in presence of AMP-PNP
Outline: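 Jurkat crude lysate (Dounce-homogenised) was treated with eight concentrations from 0.1 to 10 mM for 10 min at room temperature, then 3 min at 37 °C. It was solubilised with 0.8% NP40 and benzonase (60 min, 4 °C) and ultracentrifuged, and the supernatant was TMT-labelled for LC-MS/MS. Intensities were vsn-normalised, and the value is the fold change against the NP40-processed vehicle per replicate, from three independent experiments.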

Target	NP40-soluble protein abundance (concentration: 1mM)	NP40-soluble protein abundance (concentration: 2mM)	NP40-soluble protein abundance (concentration: 4mM)	NP40-soluble protein abundance (concentration: 6mM)	NP40-soluble protein abundance (concentration: 8mM)	NP40-soluble protein abundance (concentration: 10mM)
RBM25 (UniProt P49756)	1.02 ± 0.05	1.09 ± 0.029	1.054 ± 0.0066	1.05 ± 0.038	1.07 ± 0.023	1.15 ± 0.024
PRKX (UniProt P51817)	0.931 ± 0.029	0.959 ± 0.055	1.02 ± 0.056	0.947 ± 0.027	0.971 ± 0.0095	0.955 ± 0.036
HIRA (UniProt P54198)	1.02 ± 0.013	0.995 ± 0.024	1 ± 0.035	1.01 ± 0.013	1.01 ± 0.023	1.02 ± 0.017
FNTA (UniProt P49354)	0.958 ± 0.056	0.93 ± 0.029	0.966 ± 0.06	1.03 ± 0.088	1.06 ± 0.049	1.01 ± 0.076
USP14 (UniProt P54578)	1 ± 0.011	0.965 ± 0.027	0.972 ± 0.03	1.02 ± 0.022	1.02 ± 0.012	1.02 ± 0.043
UniProt P51809 and related entries	0.982 ± 0.023	0.941 ± 0.02	1.04 ± 0.091	1.11 ± 0.07	1.1 ± 0.054	1.12 ± 0.1
P42166 and related entries (UniProt P42167+P42166)	1.06 ± 0.015	1.12 ± 0.081	1.08 ± 0.044	1.08 ± 0.029	1.05 ± 0.029	1.1 ± 0.043
CDKN2D (UniProt P55273)	0.993 ± 0.051	0.978 ± 0.023	0.964 ± 0.024	0.9304 ± 0.0073	0.9717 ± 0.0056	0.9 ± 0.039
UniProt P52739 and related entries	0.97 ± 0.027	0.965 ± 0.027	0.97 ± 0.022	0.98 ± 0.043	0.9727 ± 0.0037	0.962 ± 0.016
CCT4 (UniProt P50991)	0.966 ± 0.072	0.951 ± 0.047	0.931 ± 0.084	0.907 ± 0.12	0.877 ± 0.08	0.905 ± 0.13
EIF2B2 (UniProt P49770)	0.921 ± 0.037	0.904 ± 0.047	0.929 ± 0.022	0.945 ± 0.056	0.956 ± 0.069	0.958 ± 0.09
SLC19A1 (UniProt P41440)	1.03 ± 0.031	1.02 ± 0.034	1.01 ± 0.03	0.987 ± 0.035	1.04 ± 0.022	1 ± 0.042
CPT1A (UniProt P50416)	0.925 ± 0.017	0.92 ± 0.093	0.924 ± 0.025	0.948 ± 0.031	0.938 ± 0.045	0.979 ± 0.059
UniProt P51948 and related entries	1.003 ± 0.0072	1.03 ± 0.021	0.987 ± 0.029	1.04 ± 0.036	0.998 ± 0.028	0.9916 ± 0.0053
SMS (UniProt P52788)	1.01 ± 0.025	0.99 ± 0.055	0.957 ± 0.034	0.963 ± 0.033	0.949 ± 0.025	0.944 ± 0.045
SLC16A1 (UniProt P53985)	1.02 ± 0.027	1.04 ± 0.032	1.02 ± 0.039	0.986 ± 0.061	0.939 ± 0.018	0.984 ± 0.072
RFC5 (UniProt P40937)	1.02 ± 0.027	0.985 ± 0.096	1.05 ± 0.052	1.11 ± 0.037	1.13 ± 0.043	1.13 ± 0.071
UniProt P50851 and related entries	0.983 ± 0.025	0.958 ± 0.012	0.978 ± 0.017	0.936 ± 0.015	0.943 ± 0.015	0.912 ± 0.017
SLC25A1 (UniProt P53007)	0.915 ± 0.044	0.857 ± 0.021	0.931 ± 0.089	0.983 ± 0.075	1.04 ± 0.059	1.06 ± 0.15
SUB1 (UniProt P53999)	0.923 ± 0.049	1 ± 0.19	0.916 ± 0.088	1 ± 0.089	0.997 ± 0.043	1.02 ± 0.11

Target	NP40-soluble protein abundance (concentration: 1mM)	NP40-soluble protein abundance (concentration: 2mM)	NP40-soluble protein abundance (concentration: 4mM)	NP40-soluble protein abundance (concentration: 6mM)	NP40-soluble protein abundance (concentration: 8mM)	NP40-soluble protein abundance (concentration: 10mM)
UniProt P49321 and related entries	0.984 ± 0.025	1.04 ± 0.07	0.955 ± 0.043	0.964 ± 0.03	0.915 ± 0.022	0.914 ± 0.051
GALK1 (UniProt P51570)	1 ± 0.032	0.985 ± 0.037	1.04 ± 0.017	1 ± 0.019	1.03 ± 0.011	1.03 ± 0.025
UniProt P49368 and related entries	0.945 ± 0.057	0.927 ± 0.047	0.934 ± 0.077	0.937 ± 0.061	0.922 ± 0.04	0.932 ± 0.13
CENPF (UniProt P49454)	1.06 ± 0.03	1.11 ± 0.049	1.11 ± 0.014	1.08 ± 0.051	1.05 ± 0.024	1.085 ± 0.0087
MTHFS (UniProt P49914)	1 ± 0.037	1.01 ± 0.021	1.01 ± 0.051	1.03 ± 0.031	1.03 ± 0.057	1.06 ± 0.022
CSK (UniProt P41240)	0.984 ± 0.024	0.951 ± 0.038	0.962 ± 0.028	0.946 ± 0.017	0.944 ± 0.018	0.905 ± 0.042
RABGGTB (UniProt P53611)	0.958 ± 0.016	0.924 ± 0.047	0.974 ± 0.05	0.979 ± 0.04	0.994 ± 0.034	0.949 ± 0.028
UniProt P43155 and related entries	0.974 ± 0.057	0.965 ± 0.011	1 ± 0.032	1.01 ± 0.086	1.01 ± 0.061	1.01 ± 0.077
RECQL (UniProt P46063)	0.972 ± 0.018	0.958 ± 0.0099	0.98 ± 0.012	1.01 ± 0.067	1.03 ± 0.045	0.977 ± 0.023
MARCKSL1 (UniProt P49006)	1.04 ± 0.12	1.03 ± 0.063	0.977 ± 0.12	0.935 ± 0.17	0.891 ± 0.065	0.978 ± 0.047
HTT (UniProt P42858)	1.007 ± 0.0014	0.978 ± 0.035	0.994 ± 0.015	0.949 ± 0.027	0.9545 ± 0.0084	0.948 ± 0.021
ACADSB (UniProt P45954)	1.005 ± 0.0092	0.972 ± 0.065	1.004 ± 0.0072	0.997 ± 0.034	1.02 ± 0.033	1 ± 0.053
ARHGDIB (UniProt P52566)	1.04 ± 0.019	1.05 ± 0.043	0.98 ± 0.067	1.03 ± 0.035	1.05 ± 0.024	1.05 ± 0.04
SERPINH1 (UniProt P50454)	0.99 ± 0.021	0.9833 ± 0.0064	0.9778 ± 0.0089	0.9783 ± 0.0027	0.983 ± 0.015	0.977 ± 0.015
UniProt P48960 and related entries	1.06 ± 0.062	1.1 ± 0.11	1.05 ± 0.1	1.03 ± 0.034	1.05 ± 0.069	1.03 ± 0.1
RAB28 (UniProt P51157)	1.01 ± 0.045	0.982 ± 0.045	1.01 ± 0.023	0.978 ± 0.055	0.996 ± 0.016	0.988 ± 0.025
UniProt P54886 and related entries	1.01 ± 0.034	0.942 ± 0.054	1.01 ± 0.03	1.01 ± 0.06	1.02 ± 0.065	0.997 ± 0.028
RABIF (UniProt P47224)	0.9979 ± 0.0065	1.01 ± 0.032	0.987 ± 0.023	1 ± 0.013	1.01 ± 0.05	1.02 ± 0.072
UniProt P46100 and related entries	1.03 ± 0.011	1.06 ± 0.038	1.049 ± 0.0066	1.05 ± 0.065	1.06 ± 0.062	1.1 ± 0.047
UniProt P43307 and related entries	0.945 ± 0.056	0.966 ± 0.02	1 ± 0.066	0.985 ± 0.049	1.03 ± 0.061	0.977 ± 0.1

Target	NP40-soluble protein abundance (concentration: 1mM)	NP40-soluble protein abundance (concentration: 2mM)	NP40-soluble protein abundance (concentration: 4mM)	NP40-soluble protein abundance (concentration: 6mM)	NP40-soluble protein abundance (concentration: 8mM)	NP40-soluble protein abundance (concentration: 10mM)
EIF5 (UniProt P55010)	1.01 ± 0.02	1.06 ± 0.067	0.999 ± 0.053	1.04 ± 0.026	1.01 ± 0.046	1.06 ± 0.048
UniProt P49757 and related entries	1.05 ± 0.03	1.1 ± 0.071	1.07 ± 0.03	1.07 ± 0.066	1.06 ± 0.026	1.1 ± 0.032
UniProt P53367 and related entries	1 ± 0.054	1 ± 0.039	0.993 ± 0.069	1.02 ± 0.052	0.968 ± 0.068	0.943 ± 0.067
UBA7 (UniProt P41226)	0.99 ± 0.016	0.959 ± 0.056	0.99 ± 0.037	0.9962 ± 0.0098	0.976 ± 0.038	0.96 ± 0.041
HLCS (UniProt P50747)	0.999 ± 0.023	0.951 ± 0.022	0.957 ± 0.027	0.97 ± 0.015	0.969 ± 0.045	0.954 ± 0.015
PSMD7 (UniProt P51665)	0.925 ± 0.017	0.882 ± 0.053	0.92 ± 0.083	0.926 ± 0.066	0.926 ± 0.086	0.951 ± 0.14
VASP (UniProt P50552)	1.02 ± 0.03	1.09 ± 0.078	1.03 ± 0.033	1.01 ± 0.015	0.999 ± 0.046	0.9961 ± 0.0094
UniProt P42285	1.006 ± 0.0056	0.982 ± 0.062	1.07 ± 0.033	1.1 ± 0.036	1.14 ± 0.068	1.13 ± 0.089
UniProt P50548 and related entries	0.96 ± 0.017	1.02 ± 0.045	0.953 ± 0.024	0.92 ± 0.066	0.892 ± 0.064	0.913 ± 0.081
UniProt P42684 and related entries	0.986 ± 0.014	0.991 ± 0.024	0.998 ± 0.018	0.984 ± 0.017	0.972 ± 0.016	0.9969 ± 0.0055
RPIA (UniProt P49247)	1.01 ± 0.053	0.972 ± 0.017	1.01 ± 0.032	1.05 ± 0.031	1.07 ± 0.035	1.044 ± 0.0066
RASSF2 (UniProt P50749)	1.02 ± 0.036	0.996 ± 0.028	0.999 ± 0.043	1.02 ± 0.055	1.05 ± 0.058	1.04 ± 0.071
PSMB10 (UniProt P40306)	0.937 ± 0.034	0.894 ± 0.036	0.915 ± 0.046	0.949 ± 0.043	0.933 ± 0.058	0.899 ± 0.046
UniProt P54819 and related entries	1.01 ± 0.036	1.06 ± 0.025	0.996 ± 0.073	0.9613 ± 0.0091	0.937 ± 0.028	0.928 ± 0.068
UniProt P48739 and related entries	0.971 ± 0.022	0.927 ± 0.087	0.95 ± 0.035	0.978 ± 0.04	0.98 ± 0.04	0.974 ± 0.052
UniProt P46734 and related entries	1.08 ± 0.065	1.13 ± 0.029	1.09 ± 0.049	1.06 ± 0.082	1.03 ± 0.11	1.06 ± 0.077
UniProt P52735 and related entries	0.969 ± 0.017	0.947 ± 0.024	0.945 ± 0.028	0.934 ± 0.051	0.936 ± 0.039	0.918 ± 0.063
ALDH9A1 (UniProt P49189)	1.01 ± 0.013	0.932 ± 0.054	0.989 ± 0.026	0.9829 ± 0.0095	0.994 ± 0.021	0.964 ± 0.037
RFC3 (UniProt P40938)	0.997 ± 0.034	0.968 ± 0.033	1.06 ± 0.097	1.19 ± 0.1	1.23 ± 0.077	1.24 ± 0.17
UniProt P52824 and related entries	0.978 ± 0.0098	0.979 ± 0.023	0.955 ± 0.028	0.99 ± 0.025	0.96 ± 0.039	0.986 ± 0.03

Record cards, from the list above:
RFC5 (UniProt P40937) in the list: NP40-soluble protein abundance (concentration: 1mM): 1.02 ± 0.027; NP40-soluble protein abundance (concentration: 2mM): 0.985 ± 0.096; NP40-soluble protein abundance (concentration: 4mM): 1.05 ± 0.052; NP40-soluble protein abundance (concentration: 6mM): 1.11 ± 0.037; NP40-soluble protein abundance (concentration: 8mM): 1.13 ± 0.043; NP40-soluble protein abundance (concentration: 10mM): 1.13 ± 0.071
UBA7 (UniProt P41226) in the list: NP40-soluble protein abundance (concentration: 1mM): 0.99 ± 0.016; NP40-soluble protein abundance (concentration: 2mM): 0.959 ± 0.056; NP40-soluble protein abundance (concentration: 4mM): 0.99 ± 0.037; NP40-soluble protein abundance (concentration: 6mM): 0.9962 ± 0.0098; NP40-soluble protein abundance (concentration: 8mM): 0.976 ± 0.038; NP40-soluble protein abundance (concentration: 10mM): 0.96 ± 0.041
CDKN2D (UniProt P55273) in the list: NP40-soluble protein abundance (concentration: 1mM): 0.993 ± 0.051; NP40-soluble protein abundance (concentration: 2mM): 0.978 ± 0.023; NP40-soluble protein abundance (concentration: 4mM): 0.964 ± 0.024; NP40-soluble protein abundance (concentration: 6mM): 0.9304 ± 0.0073; NP40-soluble protein abundance (concentration: 8mM): 0.9717 ± 0.0056; NP40-soluble protein abundance (concentration: 10mM): 0.9 ± 0.039
